Data taken from the supplement of paper PMC10849652.
This is one part of the list.

Chains of the proteins cited; added tags and fusions are not shown. Lines headed by an entry give the natural chain unless they say otherwise; changes in a name come on top.
UniProt Q9NQ35: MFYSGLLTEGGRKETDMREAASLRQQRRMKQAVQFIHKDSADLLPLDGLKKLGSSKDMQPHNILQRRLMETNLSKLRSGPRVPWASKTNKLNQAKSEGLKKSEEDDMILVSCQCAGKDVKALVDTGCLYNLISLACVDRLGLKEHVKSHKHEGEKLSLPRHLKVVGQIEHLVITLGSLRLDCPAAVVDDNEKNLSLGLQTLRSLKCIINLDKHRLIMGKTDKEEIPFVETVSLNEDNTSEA
UniProt Q9GZP1: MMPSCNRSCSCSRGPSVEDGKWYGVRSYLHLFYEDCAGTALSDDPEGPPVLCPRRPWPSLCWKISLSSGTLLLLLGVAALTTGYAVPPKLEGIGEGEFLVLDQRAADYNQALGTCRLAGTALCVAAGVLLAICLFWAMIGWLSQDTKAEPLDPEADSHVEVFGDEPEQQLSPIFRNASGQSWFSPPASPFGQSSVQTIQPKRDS
UniProt Q6ZVK8: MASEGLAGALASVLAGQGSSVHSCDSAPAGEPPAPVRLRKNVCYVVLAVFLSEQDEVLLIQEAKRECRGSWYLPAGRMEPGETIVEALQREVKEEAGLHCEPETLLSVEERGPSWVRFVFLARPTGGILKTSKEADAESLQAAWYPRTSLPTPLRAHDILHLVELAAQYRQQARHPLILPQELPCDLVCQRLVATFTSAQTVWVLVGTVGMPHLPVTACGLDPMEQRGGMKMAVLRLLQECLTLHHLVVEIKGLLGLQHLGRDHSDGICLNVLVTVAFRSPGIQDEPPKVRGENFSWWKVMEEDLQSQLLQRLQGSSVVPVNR
UniProt Q96T66: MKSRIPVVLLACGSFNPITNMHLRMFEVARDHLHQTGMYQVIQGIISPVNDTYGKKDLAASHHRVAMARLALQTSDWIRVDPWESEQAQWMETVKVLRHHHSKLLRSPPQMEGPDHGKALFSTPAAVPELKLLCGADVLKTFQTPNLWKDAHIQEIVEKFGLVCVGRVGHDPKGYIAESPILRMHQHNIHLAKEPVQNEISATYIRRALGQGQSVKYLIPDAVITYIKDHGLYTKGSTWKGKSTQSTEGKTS
UniProt O60936: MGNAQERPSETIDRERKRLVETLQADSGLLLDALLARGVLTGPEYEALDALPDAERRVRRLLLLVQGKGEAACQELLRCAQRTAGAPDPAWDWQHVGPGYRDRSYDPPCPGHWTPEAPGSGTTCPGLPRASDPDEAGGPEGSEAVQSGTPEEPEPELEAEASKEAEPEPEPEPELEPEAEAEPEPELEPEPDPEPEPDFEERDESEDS
UniProt Q9BRQ3: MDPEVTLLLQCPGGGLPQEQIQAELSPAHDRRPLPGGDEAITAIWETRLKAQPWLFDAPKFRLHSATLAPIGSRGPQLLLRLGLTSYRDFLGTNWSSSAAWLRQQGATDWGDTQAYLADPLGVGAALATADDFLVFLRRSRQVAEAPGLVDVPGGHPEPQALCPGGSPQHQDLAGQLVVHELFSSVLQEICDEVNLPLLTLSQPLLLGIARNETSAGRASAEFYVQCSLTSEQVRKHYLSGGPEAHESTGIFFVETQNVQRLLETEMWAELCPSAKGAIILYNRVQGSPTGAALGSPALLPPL
UniProt P10588: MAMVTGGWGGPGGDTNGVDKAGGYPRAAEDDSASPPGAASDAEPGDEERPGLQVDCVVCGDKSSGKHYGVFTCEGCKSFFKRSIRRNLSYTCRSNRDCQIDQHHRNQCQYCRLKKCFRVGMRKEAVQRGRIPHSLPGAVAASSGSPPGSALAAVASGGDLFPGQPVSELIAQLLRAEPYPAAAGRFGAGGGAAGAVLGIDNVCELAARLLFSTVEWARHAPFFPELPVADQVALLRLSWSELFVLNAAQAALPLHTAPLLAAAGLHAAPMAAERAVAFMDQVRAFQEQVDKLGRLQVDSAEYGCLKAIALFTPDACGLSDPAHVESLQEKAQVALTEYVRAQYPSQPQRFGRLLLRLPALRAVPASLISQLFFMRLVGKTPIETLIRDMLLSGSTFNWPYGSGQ
UniProt Q8TB37: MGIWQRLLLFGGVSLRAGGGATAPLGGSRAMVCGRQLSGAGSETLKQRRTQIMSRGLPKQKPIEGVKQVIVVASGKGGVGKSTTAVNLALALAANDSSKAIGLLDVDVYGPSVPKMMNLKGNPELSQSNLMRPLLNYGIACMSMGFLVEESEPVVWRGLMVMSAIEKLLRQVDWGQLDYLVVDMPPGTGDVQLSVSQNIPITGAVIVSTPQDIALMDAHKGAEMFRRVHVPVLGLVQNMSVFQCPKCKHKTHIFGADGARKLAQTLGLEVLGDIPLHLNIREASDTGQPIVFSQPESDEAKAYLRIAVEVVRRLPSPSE
UniProt Q96MY1: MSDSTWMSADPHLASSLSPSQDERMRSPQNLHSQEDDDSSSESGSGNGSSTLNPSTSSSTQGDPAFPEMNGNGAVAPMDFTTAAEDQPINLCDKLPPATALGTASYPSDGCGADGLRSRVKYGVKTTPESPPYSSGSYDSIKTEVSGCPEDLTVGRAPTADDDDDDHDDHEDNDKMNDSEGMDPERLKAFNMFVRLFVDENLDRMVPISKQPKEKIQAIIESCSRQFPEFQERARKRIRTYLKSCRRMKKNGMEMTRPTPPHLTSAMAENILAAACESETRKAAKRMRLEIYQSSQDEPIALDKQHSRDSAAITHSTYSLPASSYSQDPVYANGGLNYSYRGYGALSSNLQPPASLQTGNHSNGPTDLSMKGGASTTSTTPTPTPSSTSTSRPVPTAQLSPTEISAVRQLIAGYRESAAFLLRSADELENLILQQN
UniProt P53370: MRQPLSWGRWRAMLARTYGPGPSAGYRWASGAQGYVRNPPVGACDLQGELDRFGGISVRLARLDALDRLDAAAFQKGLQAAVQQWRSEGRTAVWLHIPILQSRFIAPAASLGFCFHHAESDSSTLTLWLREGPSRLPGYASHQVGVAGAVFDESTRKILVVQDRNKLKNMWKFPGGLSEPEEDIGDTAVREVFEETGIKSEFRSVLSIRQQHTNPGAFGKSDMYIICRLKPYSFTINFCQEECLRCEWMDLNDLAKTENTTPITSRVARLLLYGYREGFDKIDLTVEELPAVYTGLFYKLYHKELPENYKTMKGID

Assays:
Assay in all cases: log2 fold change, soluble protein after heating vs DMSO (PISA); higher = thermal stabilisation; K562 lysate, 10 uM; active = over 0.2 and 3.5 SD of the protein, either way, in both replicates (recomputed)
[1] = compound: C[C@H](C1=CC=C(C=C1)C(=O)NC2=C3C=CNC3=NC=C2)N
How it was run: (§1)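 Soluble protein was defined as the supernatant remaining after 21,000xg for 90 min, following pooling of heated aliquots and adjustment to 0.5% NP-40 at 4°C. Before that, crude K562 extract at 1 mg/mL protein in PBS pH 7.4 with 1 mM MgCl2 was treated with 10 μM compound for 30 min and heated for 3 min across 48°C-58°C. Quantification used TMTpro 16plex LC-MS/MS with channel sums equalised, and values are log-two fold changes in thermal stability relative to solvent controls from duplicates.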

[2] = compound: Cc1cc(Nc2cc(CN3CCOCC3)c3nc(C)c(Cc4ccc(Cl)cc4F)n3n2)n[nH]1 [gandotinib]
How it was run: as §1

[3] = compound: Cc1cc(Nc2cc(N3CCN(C)CC3)nc(Sc3ccc(NC(=O)C4CC4)cc3)n2)n[nH]1 [tozasertib]
How it was run: as §1

[4] = compound: Cc1cccc(CC(=O)N2CCc3c2ccc(-c2cn(C)c4ncnc(N)c24)c3F)n1
How it was run: as §1

[5] = compound: C[C@H](Nc1ncnc2nc[nH]c12)c1cc2cccc(Cl)c2c(=O)n1-c1ccccc1 [duvelisib]
How it was run: as §1

[6] = compound: Cc1nc(Nc2ncc(C(=O)Nc3c(C)cccc3Cl)s2)cc(N2CCN(CCO)CC2)n1 [dasatinib]
How it was run: as §1

[7] = compound: Cn1cc(-c2ccc3c(c2)CCN3C(=O)Cc2cccc(C(F)(F)F)c2)c2c(N)ncnc21
How it was run: as §1

[8] = compound: C[C@@H](Oc1cc(-c2cnn(C3CCNCC3)c2)cnc1N)c1c(Cl)ccc(F)c1Cl [crizotinib]
How it was run: as §1

[9] = compound: Cc1ccc(-n2nc(C(C)(C)C)cc2NC(=O)Nc2ccc(OCCN3CCOCC3)c3ccccc23)cc1 [doramapimod]
How it was run: as §1

[10] = compound: Cn1cc(CNCC2CCN(c3ncc(C(=O)NO)cn3)CC2)c2ccccc21 [quisinostat]
How it was run: as §1

[11] = compound: NC(=O)Nc1cc(-c2cccc(F)c2)sc1C(=O)N[C@H]1CCCNC1
How it was run: as §1

[12] = compound: NC1(c2ccc(-c3nc4ccn5c(=O)[nH]nc5c4cc3-c3ccccc3)cc2)CCC1
How it was run: as §1

[13] = compound: CS(=O)(=O)N1CCN(Cc2cc3nc(-c4cccc5[nH]ncc45)nc(N4CCOCC4)c3s2)CC1 [pictilisib]
How it was run: as §1

[14] = compound: Cc1ccc(NC(=O)c2ccc(CN3CC[C@H](N(C)C)C3)c(C(F)(F)F)c2)cc1Nc1nccc(-c2cncnc2)n1 [bafetinib]
How it was run: as §1

[15] = compound: CS(=O)(=O)CCNCc1ccc(-c2ccc3ncnc(Nc4ccc(OCc5cccc(F)c5)c(Cl)c4)c3c2)o1 [lapatinib]
How it was run: as §1

[16] = compound: Cc1cn(-c2cc(NC(=O)c3ccc(C)c(Nc4nccc(-c5cccnc5)n4)c3)cc(C(F)(F)F)c2)cn1 [nilotinib]
How it was run: as §1

[17] = compound: Cc1nc(Nc2n[nH]c3c2CN(C(=O)N[C@H](CN(C)C)c2ccccc2)C3(C)C)c2sccc2n1
How it was run: as §1

[18] = compound: Cc1ncc(-c2ccnc(Nc3ccc(S(C)(=O)=O)cc3)n2)n1C(C)C
How it was run: as §1

[19] = compound: Cn1cncc1[C@@](N)(c1ccc(Cl)cc1)c1ccc2c(c1)c(-c1cccc(Cl)c1)cc(=O)n2C [tipifarnib]
How it was run: as §1

[20] = compound: NC(=O)c1cnc(N[C@@H]2CCCC[C@@H]2N)nc1Nc1cccc(-n2nccn2)c1
How it was run: as §1

Measured: log2 fold change

NRIP3 (UniProt Q9NQ35)
inactive: [1] 0.008 | [2] 0.056 | [3] -0.11 | [4] -0.061

NRSN2 (UniProt Q9GZP1)
inactive: [5] 0.08 | [6] 0.347 | [7] 0.087

NUDT18 (UniProt Q6ZVK8)
inactive: [8] -0.077 | [1] -0.15 | [2] 0.035 | [3] -0.001 | [9] 0.062 | [4] -0.008 | [10] 0.072 | [11] -0.042 | [12] 0.064

NPLOC4 (UniProt I3L3I1)
active: [10] -0.986
inactive: [13] 0.145 | [8] -0.53 | [5] 0.038 | [3] -0.216 | [9] -0.002 | [14] -0.214 | [6] 0.057 | [7] -0.116 | [11] 0.196

NMNAT3 (UniProt Q96T66)
inactive: [13] -0.077 | [14] -0.116

2 entries picked at random from those above, as already listed:
NMNAT3 (UniProt Q96T66)
inactive: [13] -0.077 | [14] -0.116

NRIP3 (UniProt Q9NQ35)
inactive: [1] 0.008 | [2] 0.056 | [3] -0.11 | [4] -0.061

(continued)

NOL3 isoform 3 (UniProt O60936)
inactive: [15] 0.082 | [8] 0.155 | [5] 0.195 | [9] 0.167 | [16] 0.193 | [17] 0.077 | [6] 0.041 | [18] -0.499 | [7] -0.029 | [10] 0 | [19] 0.258 | [11] -0.068 | [20] -0.144 | [12] 0.076

NUDT22 (UniProt Q9BRQ3)
inactive: [15] 0.036 | [8] 0.03 | [3] -0.026 | [9] 0.021 | [16] 0.055 | [17] -0.065 | [18] 0.021 | [10] 0.02 | [19] -0.046 | [11] 0.033 | [20] -0.024 | [12] -0.267

NR2F6 (UniProt P10588)
inactive: [8] -0.046 | [5] 0.011 | [3] 0.208 | [9] -0.074 | [16] 0.089 | [17] -0.113 | [6] 0.033 | [18] -0.013 | [7] 0.074 | [10] -0.049 | [19] 0.02 | [11] 0.089

NUBPL (UniProt Q8TB37)
inactive: [5] 0.027 | [3] 0.012 | [6] -0.119 | [7] 0.052

NOL4L (UniProt Q96MY1)
inactive: [15] 0.081 | [1] -0.098 | [5] -0.033 | [2] -0.027 | [3] -0.098 | [4] -0.059 | [6] 0.007 | [7] 0.005 | [20] -0.062 | [12] -0.047

NUDT6 (UniProt P53370)
inactive: [8] 0.051 | [5] -0.034 | [3] 0.132 | [9] -0.073 | [6] -0.013 | [7] 0.032 | [10] 0.021 | [11] -0.03 | [12] -0.058
